No constants are given. Whether binding was seen depends on the method and setting. In cells and extracts the contact can be indirect. A yes stands for co-enrichment or nearness to the bait. Other partners may have been found.

Amino acid sequences for entries named in this document (tags omitted).
UniProt O00303: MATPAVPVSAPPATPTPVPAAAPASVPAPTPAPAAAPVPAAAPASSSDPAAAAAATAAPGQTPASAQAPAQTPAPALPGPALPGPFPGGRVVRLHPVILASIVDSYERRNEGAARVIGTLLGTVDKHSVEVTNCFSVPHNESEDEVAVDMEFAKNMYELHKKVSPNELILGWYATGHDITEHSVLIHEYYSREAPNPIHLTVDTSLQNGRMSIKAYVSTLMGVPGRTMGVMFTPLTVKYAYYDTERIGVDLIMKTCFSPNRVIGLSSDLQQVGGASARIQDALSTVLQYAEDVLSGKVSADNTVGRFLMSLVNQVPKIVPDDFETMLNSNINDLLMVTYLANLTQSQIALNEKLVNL
UniProt P40763: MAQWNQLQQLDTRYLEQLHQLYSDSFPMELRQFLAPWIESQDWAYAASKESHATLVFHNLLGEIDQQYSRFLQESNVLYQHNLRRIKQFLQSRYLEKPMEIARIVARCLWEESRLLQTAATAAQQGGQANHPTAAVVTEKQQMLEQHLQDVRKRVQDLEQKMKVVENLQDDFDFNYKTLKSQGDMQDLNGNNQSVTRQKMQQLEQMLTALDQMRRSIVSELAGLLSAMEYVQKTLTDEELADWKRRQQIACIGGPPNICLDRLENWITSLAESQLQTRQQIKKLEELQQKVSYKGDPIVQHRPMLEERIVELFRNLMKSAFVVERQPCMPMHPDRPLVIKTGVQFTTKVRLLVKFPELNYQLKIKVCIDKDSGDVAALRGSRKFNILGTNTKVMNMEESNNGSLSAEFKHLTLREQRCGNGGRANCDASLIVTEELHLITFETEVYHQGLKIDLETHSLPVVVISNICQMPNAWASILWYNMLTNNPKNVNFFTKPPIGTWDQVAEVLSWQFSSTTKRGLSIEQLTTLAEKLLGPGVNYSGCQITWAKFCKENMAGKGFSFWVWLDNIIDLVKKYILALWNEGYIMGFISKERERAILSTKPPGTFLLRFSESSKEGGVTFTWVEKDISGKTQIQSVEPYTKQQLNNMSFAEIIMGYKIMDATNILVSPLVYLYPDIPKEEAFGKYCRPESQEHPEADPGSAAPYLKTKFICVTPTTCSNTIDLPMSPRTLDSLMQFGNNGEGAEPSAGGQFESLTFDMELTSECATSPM
UniProt B5ME19: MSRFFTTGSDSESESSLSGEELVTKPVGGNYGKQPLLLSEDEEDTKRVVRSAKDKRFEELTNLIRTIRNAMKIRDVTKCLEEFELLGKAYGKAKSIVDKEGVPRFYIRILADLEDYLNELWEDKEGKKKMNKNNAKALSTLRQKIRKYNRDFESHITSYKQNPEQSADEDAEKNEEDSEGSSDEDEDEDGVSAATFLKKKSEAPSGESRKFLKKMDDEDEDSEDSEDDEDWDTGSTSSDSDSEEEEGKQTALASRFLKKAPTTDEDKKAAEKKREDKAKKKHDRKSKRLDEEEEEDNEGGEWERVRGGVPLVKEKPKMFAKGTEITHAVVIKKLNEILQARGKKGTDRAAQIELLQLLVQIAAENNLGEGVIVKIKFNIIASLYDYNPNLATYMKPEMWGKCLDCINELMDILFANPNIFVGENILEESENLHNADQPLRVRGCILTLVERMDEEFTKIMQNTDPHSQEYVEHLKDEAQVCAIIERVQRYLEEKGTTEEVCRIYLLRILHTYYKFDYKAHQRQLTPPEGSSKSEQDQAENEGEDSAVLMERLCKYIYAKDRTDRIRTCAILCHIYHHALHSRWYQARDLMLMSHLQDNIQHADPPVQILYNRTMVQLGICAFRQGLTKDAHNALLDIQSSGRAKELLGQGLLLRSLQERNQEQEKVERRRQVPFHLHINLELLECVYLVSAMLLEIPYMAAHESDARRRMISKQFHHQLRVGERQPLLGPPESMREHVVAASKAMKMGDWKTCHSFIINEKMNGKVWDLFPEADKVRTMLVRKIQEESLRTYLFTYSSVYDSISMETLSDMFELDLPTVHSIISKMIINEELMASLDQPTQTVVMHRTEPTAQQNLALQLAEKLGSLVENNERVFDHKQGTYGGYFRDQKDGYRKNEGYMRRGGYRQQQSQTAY
UniProt Q13263: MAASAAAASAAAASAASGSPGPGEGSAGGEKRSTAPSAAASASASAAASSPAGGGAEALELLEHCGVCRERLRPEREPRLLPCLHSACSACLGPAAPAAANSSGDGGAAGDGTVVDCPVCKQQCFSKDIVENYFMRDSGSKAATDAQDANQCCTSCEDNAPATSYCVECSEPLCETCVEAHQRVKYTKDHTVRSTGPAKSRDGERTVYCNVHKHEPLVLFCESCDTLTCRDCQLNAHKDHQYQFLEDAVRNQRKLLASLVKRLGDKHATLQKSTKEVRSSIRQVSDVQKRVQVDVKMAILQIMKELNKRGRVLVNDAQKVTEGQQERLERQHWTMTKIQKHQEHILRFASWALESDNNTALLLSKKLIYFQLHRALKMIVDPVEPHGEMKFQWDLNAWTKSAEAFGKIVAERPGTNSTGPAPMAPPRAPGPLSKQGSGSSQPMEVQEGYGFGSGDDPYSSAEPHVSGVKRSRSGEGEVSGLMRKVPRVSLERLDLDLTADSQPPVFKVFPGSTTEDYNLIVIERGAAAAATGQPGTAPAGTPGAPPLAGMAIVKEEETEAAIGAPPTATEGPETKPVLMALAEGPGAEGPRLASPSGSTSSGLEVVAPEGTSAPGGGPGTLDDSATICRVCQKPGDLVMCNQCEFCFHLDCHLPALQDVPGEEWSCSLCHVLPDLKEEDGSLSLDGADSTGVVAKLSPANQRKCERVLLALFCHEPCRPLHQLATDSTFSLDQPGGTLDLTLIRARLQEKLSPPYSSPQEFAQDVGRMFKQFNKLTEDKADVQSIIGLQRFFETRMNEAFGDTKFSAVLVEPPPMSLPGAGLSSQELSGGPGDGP
UniProt Q99613: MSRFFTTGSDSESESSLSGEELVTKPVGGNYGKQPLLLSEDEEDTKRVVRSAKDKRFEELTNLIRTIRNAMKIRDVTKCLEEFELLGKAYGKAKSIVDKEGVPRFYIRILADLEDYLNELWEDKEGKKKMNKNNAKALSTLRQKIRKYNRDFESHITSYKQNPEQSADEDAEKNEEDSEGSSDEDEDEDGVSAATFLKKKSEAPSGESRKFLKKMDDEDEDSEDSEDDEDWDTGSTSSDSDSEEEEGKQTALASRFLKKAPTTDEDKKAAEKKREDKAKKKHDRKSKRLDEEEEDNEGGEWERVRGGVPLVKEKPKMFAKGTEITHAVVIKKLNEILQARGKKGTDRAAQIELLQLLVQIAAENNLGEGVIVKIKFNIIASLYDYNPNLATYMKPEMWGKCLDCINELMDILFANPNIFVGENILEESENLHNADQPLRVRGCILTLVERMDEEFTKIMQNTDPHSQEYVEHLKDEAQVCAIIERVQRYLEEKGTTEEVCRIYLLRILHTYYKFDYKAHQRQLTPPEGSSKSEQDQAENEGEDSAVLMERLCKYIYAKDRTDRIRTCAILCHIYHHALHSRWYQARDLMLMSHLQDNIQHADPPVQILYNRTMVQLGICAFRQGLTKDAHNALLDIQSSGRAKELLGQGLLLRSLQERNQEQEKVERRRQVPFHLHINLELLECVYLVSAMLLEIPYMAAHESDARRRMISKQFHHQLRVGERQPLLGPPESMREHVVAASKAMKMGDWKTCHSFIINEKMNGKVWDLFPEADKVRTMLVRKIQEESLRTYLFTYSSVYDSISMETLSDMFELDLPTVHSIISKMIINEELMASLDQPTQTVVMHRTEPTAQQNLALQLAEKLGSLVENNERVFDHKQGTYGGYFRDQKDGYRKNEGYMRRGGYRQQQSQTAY
UniProt Q9NYF8: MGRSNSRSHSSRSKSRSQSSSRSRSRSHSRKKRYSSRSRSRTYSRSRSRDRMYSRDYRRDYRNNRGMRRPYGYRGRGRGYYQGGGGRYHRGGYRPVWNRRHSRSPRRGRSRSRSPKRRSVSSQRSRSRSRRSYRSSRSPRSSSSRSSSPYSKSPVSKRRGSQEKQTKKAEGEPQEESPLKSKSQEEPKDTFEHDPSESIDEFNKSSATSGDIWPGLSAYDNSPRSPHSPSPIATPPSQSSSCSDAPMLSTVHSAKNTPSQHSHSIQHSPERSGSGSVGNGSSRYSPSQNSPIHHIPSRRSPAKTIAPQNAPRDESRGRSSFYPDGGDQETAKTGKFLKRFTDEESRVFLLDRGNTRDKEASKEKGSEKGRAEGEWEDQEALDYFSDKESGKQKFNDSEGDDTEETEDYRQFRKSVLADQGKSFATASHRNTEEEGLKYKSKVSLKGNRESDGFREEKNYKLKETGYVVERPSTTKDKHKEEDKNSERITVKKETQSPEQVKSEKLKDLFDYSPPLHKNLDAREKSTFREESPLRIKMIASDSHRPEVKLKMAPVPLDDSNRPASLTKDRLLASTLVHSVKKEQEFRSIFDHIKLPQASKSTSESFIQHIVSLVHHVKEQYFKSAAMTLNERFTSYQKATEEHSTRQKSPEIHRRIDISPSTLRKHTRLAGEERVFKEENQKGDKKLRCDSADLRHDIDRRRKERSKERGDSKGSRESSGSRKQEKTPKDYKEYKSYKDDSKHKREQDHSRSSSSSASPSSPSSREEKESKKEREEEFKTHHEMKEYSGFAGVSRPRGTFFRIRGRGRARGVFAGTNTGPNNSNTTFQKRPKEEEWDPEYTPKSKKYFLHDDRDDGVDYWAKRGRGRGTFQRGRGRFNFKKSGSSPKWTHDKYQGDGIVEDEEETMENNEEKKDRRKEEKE
UniProt P78347: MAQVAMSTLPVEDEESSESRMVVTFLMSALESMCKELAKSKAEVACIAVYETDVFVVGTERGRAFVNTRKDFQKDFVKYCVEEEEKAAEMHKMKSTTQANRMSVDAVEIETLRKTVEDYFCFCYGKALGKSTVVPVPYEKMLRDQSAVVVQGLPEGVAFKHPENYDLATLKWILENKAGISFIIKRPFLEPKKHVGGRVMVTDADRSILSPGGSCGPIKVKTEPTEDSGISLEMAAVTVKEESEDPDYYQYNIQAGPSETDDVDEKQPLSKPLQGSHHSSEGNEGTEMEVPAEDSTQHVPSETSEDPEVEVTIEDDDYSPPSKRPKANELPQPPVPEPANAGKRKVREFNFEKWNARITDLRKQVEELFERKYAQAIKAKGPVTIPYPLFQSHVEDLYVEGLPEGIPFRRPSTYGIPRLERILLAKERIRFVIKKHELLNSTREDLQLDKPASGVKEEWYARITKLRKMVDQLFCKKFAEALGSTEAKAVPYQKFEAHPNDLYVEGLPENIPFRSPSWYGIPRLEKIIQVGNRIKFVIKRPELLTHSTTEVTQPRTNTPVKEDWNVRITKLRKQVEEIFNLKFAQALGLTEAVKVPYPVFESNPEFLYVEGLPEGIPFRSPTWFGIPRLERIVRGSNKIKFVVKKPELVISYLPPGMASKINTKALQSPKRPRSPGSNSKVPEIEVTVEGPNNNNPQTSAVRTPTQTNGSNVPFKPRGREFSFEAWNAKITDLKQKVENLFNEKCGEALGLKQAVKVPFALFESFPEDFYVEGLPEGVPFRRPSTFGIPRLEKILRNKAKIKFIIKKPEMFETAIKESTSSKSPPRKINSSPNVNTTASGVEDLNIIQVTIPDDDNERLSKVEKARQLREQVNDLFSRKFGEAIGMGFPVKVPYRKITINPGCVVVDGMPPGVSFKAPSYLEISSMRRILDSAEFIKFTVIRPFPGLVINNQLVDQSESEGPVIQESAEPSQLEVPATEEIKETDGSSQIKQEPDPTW
UniProt O15371: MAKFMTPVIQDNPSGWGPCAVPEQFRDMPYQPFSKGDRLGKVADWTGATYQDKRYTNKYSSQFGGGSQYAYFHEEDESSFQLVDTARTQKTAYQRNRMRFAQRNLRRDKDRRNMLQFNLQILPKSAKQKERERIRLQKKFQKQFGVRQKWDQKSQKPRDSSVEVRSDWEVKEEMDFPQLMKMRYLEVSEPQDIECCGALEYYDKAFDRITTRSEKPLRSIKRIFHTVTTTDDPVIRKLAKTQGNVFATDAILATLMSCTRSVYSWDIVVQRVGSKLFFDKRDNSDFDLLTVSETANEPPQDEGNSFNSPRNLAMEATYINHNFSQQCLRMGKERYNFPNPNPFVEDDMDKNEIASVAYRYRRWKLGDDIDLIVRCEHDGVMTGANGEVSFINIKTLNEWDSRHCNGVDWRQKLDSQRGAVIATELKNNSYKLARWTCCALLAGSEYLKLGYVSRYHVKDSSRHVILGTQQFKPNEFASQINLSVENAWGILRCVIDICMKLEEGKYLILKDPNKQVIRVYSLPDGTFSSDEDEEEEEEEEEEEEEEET

This assay deals with Flag-M2-tagged EIF3F (eukaryotic translation initiation factor 3F) (human) (UniProt O00303). Kind of assay: affinity purification with mass spectrometry; FLAG-EIF3F from EIF3F-A549 lysate held on Anti-Flag M2 magnetic beads; 50 mM Tris HCl pH 7.4, 150 mM NaCl, 1 mM EDTA, 1% Triton X-100; overnight at 4 °C; eluted with sample buffer; partners identified by proteomic analysis.

Take “Signal transducer and activator of transcription 3 (from UniProt P40763 1-770)”: the binding entry is “binds”. Consider EIF3CL (from UniProt B5ME19 1-914), for which the binding entry is reported as “binds”. As to “Transcription intermediary factor 1-beta (from UniProt Q13263 1-835)”, the binding result is on record as “binds”. Regarding EIF3C (from UniProt Q99613 1-913), the binding entry was “binds”.

Turning to “Bcl-2-associated transcription factor 1 (from UniProt Q9NYF8 1-920)”, the binding result is reported as “binds”. To “General transcription factor II-I (from UniProt P78347 1-998)” belongs “binds”; to EIF3D (from UniProt O15371 1-548), “binds”.

B1: Transcription initiation factor IIE subunit beta (protein, UniProt P29084 1-291)
chain: MDPSLLRERELFKKRALSTPVVEKRSASSESSSSSSKKKKTKVEHGGSSGSKQNSDHSNGSFNLKALSGSSGYKFGVLAKIVNYMKTRHQRGDTHPLTLDEILDETQHLDIGLKQKQWLMTEALVNNPKIEVIDGKYAFKPKYNVRDKKALLRLLDQHDQRGLGGILLEDIEEALPNSQKAVKALGDQILFVNRPDKKKILFFNDKSCQFSVDEEFQKLWRSVTVDSMDEEKIEEYLKRQGISSMQESGPKKVAPIQRRKKPASQKKRRFKTHNEHLAGVLKDYSDITSSK
As to B1, the binding result is “binds”.

B2: RNA transcription, translation and transport factor (protein, UniProt Q9Y224 1-244)
chain: MFRRKLTALDYHNPAGFNCKDETEFRNFIVWLEDQKIRHYKIEDRGNLRNIHSSDWPKFFEKYLRDVNCPFKIQDRQEAIDWLLGLAVRLEYGDNAEKYKDLVPDNSKTADNATKNAEPLINLDVNNPDFKAGVMALANLLQIQRHDDYLVMLKAIRILVQERLTQDAVAKANQTKEGLPVALDKHILGFDTGDAVLNEAAQILRLLHIEELRELQTKINEAIVAVQAIIADPKTDHRLGKVGR
Consider B2, for which the binding result was “binds”.

B3: Transcription factor A, mitochondrial (protein, UniProt Q00059 43-246)
chain: SSVLASCPKKPVSSYLRFSKEQLPIFKAQNPDAKTTELIRRIAQRWRELPDSKKKIYQDAYRAEWQVYKEEISRFKEQLTPSQIMSLEKEIMDKHLKRKAMTKKKELTLLGKPKRPRSAYNVYVAERFQEAKGDSPQEKLKTVKENWKNLSDSEKELYIQHAKEDETRYHNEMKSWEEQMIEVGRKDLLRRTIKKQRKYGAEEC
For the molecule B3, the binding entry was “binds”.

Values taken from publication PMC6962096.
